# B1: Aurora AD274N: Kinase dead human Aurora AD274N mutant (residues 122-403) (protein)
# chain: ESKKRQWALEDFEIGRPLGKGKFGNVYLAREKQSKFILALKVLFKAQLEKAGVEHQLRREVEIQSHLRHPNILRLYGYFHDATRVYLILEYAPLGTVYRELQKLSKFDEQRTATYITELANALSYCHSKRVIHRDIKPENLLLGSAGELKIANFGWSVHAPSSRRTTLCGTLDYLPPEMIEGRMHDEKVDLWSLGVLCYEFLVGKPPFEANTYQETYKRISRVEFTFPDFVTEGARDLISRLLKHNPSQRPMLREVLEHPWITANSSKPSNCQNKESASKQS
# modifications: left off: His6, C-terminal, kept
# Test system: Aurora AD274N kinase
# Assay: Sedimentation velocity AUC, Aurora A D274N / RAD-TPX2
# Assay type: binding, human
# Conditions: 20°C, 20 mM HEPES pH 7.5, 500 mM NaCl
molecule,measurement,setting,value
B1,Sedimentation coefficient (s-value),"SV AUC, 50 000 rpm, 280 nm, Aurora AD274N 10 μM, RAD-TPX2 25 μM, complex 10 μM each",2.6 S
same,Molar mass from SV AUC,boundary spreading,34.5 kDa

# From article PMC5897841, “Development of a multipurpose scaffold for the display of peptide loops” (Protein Engineering, Design and Selection, 2017)
